{"source": "patent US12576085B2", "about": "“Combination comprising an ATP analog and an adenosine receptor antagonist or a nucleobase/nucleoside analog for the treatment of cancer” (priority 2010, dated 2026)", "system": "adenine nucleobase transporters", "settings": "1 μM [3H]adenine, hRPTCs", "note": "At least one compound was matched to its structure with a doubt left.", "data": [{"smiles": "COc1cc2c(Nc3ccc(Br)cc3F)ncnc2cc1OCC1CCN(C)CC1", "note": "[vandetanib]", "values": [{"measurement": "inhibition of adenine transport (in words)", "value": "partial"}]}]}
